Measurements from US9605041B2, “Regulatory proteins and inhibitors” (INTRA-CELLULAR THERAPIES, INC., priority 2009, dated 2017).
pIC50: −log10 of the molar value.

Biological target: PDGF receptor
Assay: Kinase profiling (Millipore standard assay), PDGF receptor
Settings: read-out: IC50 against PDGF receptor; ATP=45 μM

Q: `Cc1ccc(NC(=O)c2ccc(CN3CCN(C)CC3)cc2)cc1Nc1nccc(-c2cccnc2)n1` [imatinib, reference compound] was tested. Which pIC50 did it give?
A: 5.32
